Test results from paper PMC12299903 (Pharmaceuticals, 2025).

How the values were obtained:
[1] = Differential scanning calorimetry of model membranes; details: for ∆transH of LUVs: 3 mM DMPC:DMPG (3:1) LUVs, 10 mM Tris-HCl pH 7.5, pure LUVs 24.0, triplicate, ± 0.5
Experimental: The phase transition profile of 1,2-dimyristoyl-sn-glycero-3-phosphocholine and 1,2-dimyristoyl-sn-glycero-3-phosphocholine/1,2-dimyristoyl-sn-glycero-3-phosphoglycerol (DMPC:DMPG. 3:1, mol:mol) at 3 mM was investigated in the absence and presence of Lun-1, NP, NP-Lun-EN, and NP-Lun-EC at different concentrations (Table S1, using a VP-DSC® microcalorimeter (Malvern® Instruments, Malvern, UK). All mixtures of LUVs and peptide–LUVs were prepared immediately prior to the experiments. The samples were pre-degassed and tested against a 10 mM Tris-HCl buffer (pH 7.5) containing 50 mM NaCl in the reference cell. Buffer-only experiments were also performed in all cells for subsequent background subtraction. Each sample underwent three successive heating scans in the temperature range of 10–35 °C at a heating rate of 1.0 °C.min^−1. Data analyses were performed using Microcal Origin® DSC software version 5.0 (GE HealthCare-Microcal®, Amherst, MA, USA), which was employed to subtract the blank and determine the transition temperature (Tm) and transition enthalpy (DtransH) from the gel phase to the liquid crystalline phase.

[2] = 2H solid-state NMR, phospholipid bilayer order parameters; details: POPC:POPG-d31 (3:1), 2 mol% peptide, pH 7.0, 300 K
[3] = Isothermal titration calorimetry, peptide-membrane interaction; type: binding; details: ITC, 20 mM POPC:POPG (3:1) LUVs titrated into sample at 50 µM peptide; 10 mM Tris-HCl, 100 mM NaCl, pH 8.5; 25 °C

| Substance | ∆transH of LUVs ([1]; 10 µM peptide) [kJ/mol] | ∆transH of LUVs ([1]; 25 µM peptide) | ∆transH of LUVs ([1]; 50 µM peptide) [kJ/mol] | ∆transH of LUVs ([1]; 100 µM peptide) [kJ/mol] | relative order parameters of lipid chain (SCD sample / SCD pure vesicles) [2] | ΔG^0 [3] [kcal/mol] | ΔH^0 [3] [kcal/mol] | ΔS^0 [3] [cal·mol^−1.K^−1] | lowering of transition enthalpy (DtransH) ([1]; DMPC:DMPG (3:1) LUVs, versus pure LUVs) [kcal/mol] |
| --- | --- | --- | --- | --- | --- | --- | --- | --- | --- |
| NP-NtermEAAA-Lun-1 [NP-Lun-EN] | 24.0 | 23.5 kJ/mol | 21.5 | 17.8 | minimal effects | -3.478 | -0.2 ± 0.03 | 11 | – |
| Lun-1-AAAECterm-NP [NP-Lun-EC] | 23.7 | 22.0/22.0 kJ·mol^−1 | 19.1 | 16.7 | significant changes | -7.802 | -0.65 ± 0.05 | 24 | 1.74 |
